Measured values reported in patent publication US12419871B2, “Biomolecules involved in Alzheimer's disease” (ELECTROPHORETICS LIMITED, priority 2015, dated 2025).

B1: P19022 (protein, UniProt P19022 1-906, looked up)
chain: MCRIAGALRTLLPLLAALLQASVEASGEIALCKTGFPEDVYSAVLSKDVHEGQPLLNVKFSNCNGKRKVQYESSEPADFKVDEDGMVYAVRSFPLSSEHAKFLIYAQDKETQEKWQVAVKLSLKPTLTEESVKESAEVEEIVFPRQFSKHSGHLQRQKRDWVIPPINLPENSRGPFPQELVRIRSDRDKNLSLRYSVTGPGADQPPTGIFIINPISGQLSVTKPLDREQIARFHLRAHAVDINGNQVENPIDIVINVIDMNDNRPEFLHQVWNGTVPEGSKPGTYVMTVTAIDADDPNALNGMLRYRIVSQAPSTPSPNMFTINNETGDIITVAAGLDREKVQQYTLIIQATDMEGNPTYGLSNTATAVITVTDVNDNPPEFTAMTFYGEVPENRVDIIVANLTVTDKDQPHTPAWNAVYRISGGDPTGRFAIQTDPNSNDGLVTVVKPIDFETNRMFVLTVAAENQVPLAKGIQHPPQSTATVSVTVIDVNENPYFAPNPKIIRQEEGLHAGTMLTTFTAQDPDRYMQQNIRYTKLSDPANWLKIDPVNGQITTIAVLDRESPNVKNNIYNATFLASDNGIPPMSGTGTLQIYLLDINDNAPQVLPQEAETCETPDPNSINITALDYDIDPNAGPFAFDLPLSPVTIKRNWTITRLNGDFAQLNLKIKFLEAGIYEVPIIITDSGNPPKSNISILRVKVCQCDSNGDCTDVDRIVGAGLGTGAIIAILLCIIILLILVLMFVVWMKRRDKERQAKQLLIDPEDDVRDNILKYDEEGGGEEDQDYDLSQLQQPDTVEPDAIKPVGIRRMDERPIHAEPQYPVRSAAPHPGDIGDFINEGLKAADNDPTAPPYDSLLVFDYEGSGSTAGSLSSLNSSSSGGEQDYDYLNDWGPRFKKLADMYGGGDD
modifications: full-length
B2: P11274 (protein, UniProt P11274 1-1271, looked up)
chain: MVDPVGFAEAWKAQFPDSEPPRMELRSVGDIEQELERCKASIRRLEQEVNQERFRMIYLQTLLAKEKKSYDRQRWGFRRAAQAPDGASEPRASASRPQPAPADGADPPPAEEPEARPDGEGSPGKARPGTARRPGAAASGERDDRGPPASVAALRSNFERIRKGHGQPGADAEKPFYVNVEFHHERGLVKVNDKEVSDRISSLGSQAMQMERKKSQHGAGSSVGDASRPPYRGRSSESSCGVDGDYEDAELNPRFLKDNLIDANGGSRPPWPPLEYQPYQSIYVGGMMEGEGKGPLLRSQSTSEQEKRLTWPRRSYSPRSFEDCGGGYTPDCSSNENLTSSEEDFSSGQSSRVSPSPTTYRMFRDKSRSPSQNSQQSFDSSSPPTPQCHKRHRHCPVVVSEATIVGVRKTGQIWPNDGEGAFHGDADGSFGTPPGYGCAADRAEEQRRHQDGLPYIDDSPSSSPHLSSKGRGSRDALVSGALESTKASELDLEKGLEMRKWVLSGILASEETYLSHLEALLLPMKPLKAAATTSQPVLTSQQIETIFFKVPELYEIHKEFYDGLFPRVQQWSHQQRVGDLFQKLASQLGVYRAFVDNYGVAMEMAEKCCQANAQFAEISENLRARSNKDAKDPTTKNSLETLLYKPVDRVTRSTLVLHDLLKHTPASHPDHPLLQDALRISQNFLSSINEEITPRRQSMTVKKGEHRQLLKDSFMVELVEGARKLRHVFLFTDLLLCTKLKKQSGGKTQQYDCKWYIPLTDLSFQMVDELEAVPNIPLVPDEELDALKIKISQIKNDIQREKRANKGSKATERLKKKLSEQESLLLLMSPSMAFRVHSRNGKSYTFLISSDYERAEWRENIREQQKKCFRSFSLTSVELQMLTNSCVKLQTVHSIPLTINKEDDESPGLYGFLNVIVHSATGFKQSSNLYCTLEVDSFGYFVNKAKTRVYRDTAEPNWNEEFEIELEGSQTLRILCYEKCYNKTKIPKEDGESTDRLMGKGQVQLDPQALQDRDWQRTVIAMNGIEVKLSVKFNSREFSLKRMPSRKQTGVFGVKIAVVTKRERSKVPYIVRQCVEEIERRGMEEVGIYRVSGVATDIQALKAAFDVNNKDVSVMMSEMDVNAIAGTLKLYFRELPEPLFTDEFYPNFAEGIALSDPVAKESCMLNLLLSLPEANLLTFLFLLDHLKRVAEKEAVNKMSLHNLATVFGPTLLRPSEKESKLPANPSQPITMTDSWSLEVMSQVQVLLYFLQLEAIPAPDSKRQSILFSTEV
modifications: full-length
B3: P35612 (protein, UniProt P35612 1-726, looked up)
chain: MSEETVPEAASPPPPQGQPYFDRFSEDDPEYMRLRNRAADLRQDFNLMEQKKRVTMILQSPSFREELEGLIQEQMKKGNNSSNIWALRQIADFMASTSHAVFPTSSMNVSMMTPINDLHTADSLNLAKGERLMRCKISSVYRLLDLYGWAQLSDTYVTLRVSKEQDHFLISPKGVSCSEVTASSLIKVNILGEVVEKGSSCFPVDTTGFCLHSAIYAARPDVRCIIHLHTPATAAVSAMKWGLLPVSHNALLVGDMAYYDFNGEMEQEADRINLQKCLGPTCKILVLRNHGVVALGDTVEEAFYKIFHLQAACEIQVSALSSAGGVENLILLEQEKHRPHEVGSVQWAGSTFGPMQKSRLGEHEFEALMRMLDNLGYRTGYTYRHPFVQEKTKHKSEVEIPATVTAFVFEEDGAPVPALRQHAQKQQKEKTRWLNTPNTYLRVNVADEVQRSMGSPRPKTTWMKADEVEKSSSGMPIRIENPNQFVPLYTDPQEVLEMRNKIREQNRQDVKSAGPQSQLLASVIAEKSRSPSTESQLMSKGDEDTKDDSEETVPNPFSQLTDQELEEYKKEVERKKLELDGEKETAPEEPGSPAKSAPASPVQSPAKEAETKSPLVSPSKSLEEGTKKTETSKAATTEPETTQPEGVVVNGREEEQTAEEILSKGLSQMTTSADTDVDTSKDKTESVTSGPMSPEGSPSKSPSKKKKKFRTPSFLKKSKKKEKVES
modifications: full-length
B4: P02749 (protein, UniProt P02749 1-345, looked up)
chain: MISPVLILFSSFLCHVAIAGRTCPKPDDLPFSTVVPLKTFYEPGEEITYSCKPGYVSRGGMRKFICPLTGLWPINTLKCTPRVCPFAGILENGAVRYTTFEYPNTISFSCNTGFYLNGADSAKCTEEGKWSPELPVCAPIICPPPSIPTFATLRVYKPSAGNNSLYRDTAVFECLPQHAMFGNDTITCTTHGNWTKLPECREVKCPFPSRPDNGFVNYPAKPTLYYKDKATFGCHDGYSLDGPEEIECTKLGNWSAMPSCKASCKVPVKKATVVYQGERVKIQEKFKNGMLHGDKVSFFCKNKEKKCSYTEDAQCIDGTIEVPKCFKEHSSLAFWKTDASDVKPC
modifications: full-length
B5: Q96KN2 (protein, UniProt Q96KN2 1-507, looked up)
chain: MDPKLGRMAASLLAVLLLLLERGMFSSPSPPPALLEKVFQYIDLHQDEFVQTLKEWVAIESDSVQPVPRFRQELFRMMAVAADTLQRLGARVASVDMGPQQLPDGQSLPIPPVILAELGSDPTKGTVCFYGHLDVQPADRGDGWLTDPYVLTEVDGKLYGRGATDNKGPVLAWINAVSAFRALEQDLPVNIKFIIEGMEEAGSVALEELVEKEKDRFFSGVDYIVISDNLWISQRKPAITYGTRGNSYFMVEVKCRDQDFHSGTFGGILHEPMADLVALLGSLVDSSGHILVPGIYDEVVPLTEEEINTYKAIHLDLEEYRNSSRVEKFLFDTKEEILMHLWRYPSLSIHGIEGAFDEPGTKTVIPGRVIGKFSIRLVPHMNVSAVEKQVTRHLEDVFSKRNSSNKMVVSMTLGLHPWIANIDDTQYLAAKRAIRTVFGTEPDMIRDGSTIPIAKMFQEIVHKSVVLIPLGAVDDGEHSQNEKINRWNYIEGTKLFAAFFLEMAQLH
modifications: full-length
B6: Q8WXS3 (protein, UniProt Q8WXS3 1-145, looked up)
chain: MGCGGSRADAIEPRYYESWTRETESTWLTYTDSDAPPSAAAPDSGPEAGGLHSGMLEDGLPSNGVPRSTAPGGIPNPEKKTNCETQCPNPQSLSSGPLTQKQNGLQTTEAKRDAKRMPAKEVTINVTDSIQQMDRSRRITKNCVN
modifications: full-length
B7: Q96GW7 (protein, UniProt Q96GW7 1-911, looked up)
chain: MAQLFLPLLAALVLAQAPAALADVLEGDSSEDRAFRVRIAGDAPLQGVLGGALTIPCHVHYLRPPPSRRAVLGSPRVKWTFLSRGREAEVLVARGVRVKVNEAYRFRVALPAYPASLTDVSLALSELRPNDSGIYRCEVQHGIDDSSDAVEVKVKGVVFLYREGSARYAFSFSGAQEACARIGAHIATPEQLYAAYLGGYEQCDAGWLSDQTVRYPIQTPREACYGDMDGFPGVRNYGVVDPDDLYDVYCYAEDLNGELFLGDPPEKLTLEEARAYCQERGAEIATTGQLYAAWDGGLDHCSPGWLADGSVRYPIVTPSQRCGGGLPGVKTLFLFPNQTGFPNKHSRFNVYCFRDSAQPSAIPEASNPASNPASDGLEAIVTVTETLEELQLPQEATESESRGAIYSIPIMEDGGGGSSTPEDPAEAPRTLLEFETQSMVPPTGFSEEEGKALEEEEKYEDEEEKEEEEEEEEVEDEALWAWPSELSSPGPEASLPTEPAAQEESLSQAPARAVLQPGASPLPDGESEASRPPRVHGPPTETLPTPRERNLASPSPSTLVEAREVGEATGGPELSGVPRGESEETGSSEGAPSLLPATRAPEGTRELEAPSEDNSGRTAPAGTSVQAQPVLPTDSASRGGVAVVPASGDCVPSPCHNGGTCLEEEEGVRCLCLPGYGGDLCDVGLRFCNPGWDAFQGACYKHFSTRRSWEEAETQCRMYGAHLASISTPEEQDFINNRYREYQWIGLNDRTIEGDFLWSDGVPLLYENWNPGQPDSYFLSGENCVVMVWHDQGQWSDVPCNYHLSYTCKMGLVSCGPPPELPLAQVFGRPRLRYEVDTVLRYRCREGLAQRNLPLIRCQENGRWEAPQISCVPRRPARALHPEEDPEGRQGRLLGRWKALLIPPSSPMPGP
modifications: full-length
B8: P07686 (protein, UniProt P07686 1-556, looked up)
chain: MELCGLGLPRPPMLLALLLATLLAAMLALLTQVALVVQVAEAARAPSVSAKPGPALWPLPLLVKMTPNLLHLAPENFYISHSPNSTAGPSCTLLEEAFRRYHGYIFGFYKWHHEPAEFQAKTQVQQLLVSITLQSECDAFPNISSDESYTLLVKEPVAVLKANRVWGALRGLETFSQLVYQDSYGTFTINESTIIDSPRFSHRGILIDTSRHYLPVKIILKTLDAMAFNKFNVLHWHIVDDQSFPYQSITFPELSNKGSYSLSHVYTPNDVRMVIEYARLRGIRVLPEFDTPGHTLSWGKGQKDLLTPCYSRQNKLDSFGPINPTLNTTYSFLTTFFKEISEVFPDQFIHLGGDEVEFKCWESNPKIQDFMRQKGFGTDFKKLESFYIQKVLDIIATINKGSIVWQEVFDDKAKLAPGTIVEVWKDSAYPEELSRVTASGFPVILSAPWYLDLISYGQDWRKYYKVEPLDFGGTQKQKQLFIGGEACLWGEYVDATNLTPRLWPRASAVGERLWSSKDVRDMDDAYDRLTRHRCRMVERGIAAQPLYAGYCNHENM
modifications: full-length

Experiment: TMTcalibrator quantification of regulated proteins in AD CSF versus control
Design: species or system human
Conditions: CSF of AD patient versus control; non-modified peptides of each protein summed for three control and three AD cases

In order of falling “Log2 AD/Control” value:
1. B8  1.49
2. B1  1.17
3. B2  0.99
4. B6  0.88
5. B3  0.77
6. B5  0.71
7. B7  0.69
8. B4  −0.70
